Reference: PubChem BioAssay (NCATS)
Inconclusive means that the source gave no clear call. Such entries were picked first, then a sample of the others. Where the call is inconclusive, the potency comes from a doubtful curve fit. Calls of active or inactive are those of the source. Calls follow the shape of the dose curve; as a rule, active = well fitted cell-killing curve with a large enough effect; inconclusive = small, poorly fitted or top-dose-only effect, or effect the other way; inactive = no such curve, though single readings can be large or run the other way.

test: Quantitative High-Throughput drug screen in 47 multiple myeloma cell lines against the NCATS MIPE library collection: U266_ATCC cell viability assay (AID 1919864); conditions: U266 myeloma viability, CellTiter-Glo ATP luminescence, 48 h; series mostly up to 45.8 µM; also: nearly all actives have a fitted effect of over 35% in size
How it was run: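 Inhibition of viability over 48 h was scored by ATP content (CellTiter-Glo) in 500-cell wells. Zero and full viability were defined by media-only and DMSO-only wells.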
Potency is read from the fitted curve at half-maximal effect.

Structure (SMILES)	Potency
Cc1oc(=O)oc1CN1CCN(c2cc3c(cc2F)c(=O)c(C(=O)O)c2n3C(C)S2)CC1 (stereo unspecified)	inactive
NCc1c[nH]c(=S)n1[C@H]1CCc2c(F)cc(F)cc2C1	inconclusive: 37.2 µM [cytotoxic, single point]
COc1cc(CNC(=O)CCCCC=CC(C)C)ccc1O	inactive
Nc1cccc(S(=O)(=O)N2CCCN(S(=O)(=O)c3ccc4c(c3)OCCO4)CC2)c1	inconclusive: 11.8 µM [cytotoxic, partial curve, poor fit]
CCn1c(-c2nonc2N)nc2c(C#CC(C)(C)O)ncc(OC[C@H]3CCCNC3)c21	active: 23.5 µM
COc1cc2c(c(OC)c1OC)-c1ccc(OC)c(=O)cc1[C@@H](NC(C)=O)CC2	inconclusive: 0.059 µM [cytotoxic, partial curve, poor fit]
Oc1ccc([C@@H]2Oc3ccc(O)cc3[C@@H]3CCC[C@@H]32)cc1	inconclusive: 33.2 µM [cytotoxic, partial curve, poor fit]
N#CC(=C(N)Sc1ccc(N)cc1)c1ccccc1C(F)(F)F	inconclusive: 20.9 µM [cytotoxic, partial curve, poor fit]
CCn1c(=O)c2c(nc(C=Cc3ccc(OC)c(OC)c3)n2C)n(CC)c1=O	inconclusive: 26.4 µM [cytotoxic, single point]
CCNC(=O)Nc1ccc(Oc2ncnc(N)c2C=NOC)cc1Cl	inconclusive: 0.0418 µM [rising, full curve]
CC(C)(O)CCc1ccc(OCc2cc(-c3cccc(OC(F)F)c3)c3ncccc3c2)cc1	inconclusive: 26.4 µM [cytotoxic, single point]

Shown field by field: part of the list above
CCNC(=O)Nc1ccc(Oc2ncnc(N)c2C=NOC)cc1Cl
  Potency: inconclusive: 0.0418 µM [rising, full curve]
CC(C)(O)CCc1ccc(OCc2cc(-c3cccc(OC(F)F)c3)c3ncccc3c2)cc1
  Potency: inconclusive: 26.4 µM [cytotoxic, single point]
